Measured values: patent US20140011978A1
These are yes or no findings as the source states them, for the method shown. Some binding calls cover weakened binding; strength is not graded here.

Chains of the proteins cited; added tags and fusions are not shown. Residues count along the entry.
UniProt P01127, residues 82-190: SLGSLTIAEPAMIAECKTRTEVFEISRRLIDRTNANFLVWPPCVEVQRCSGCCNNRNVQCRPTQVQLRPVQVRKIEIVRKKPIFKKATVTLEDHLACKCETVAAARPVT
UniProt P24821, residues 895-1074: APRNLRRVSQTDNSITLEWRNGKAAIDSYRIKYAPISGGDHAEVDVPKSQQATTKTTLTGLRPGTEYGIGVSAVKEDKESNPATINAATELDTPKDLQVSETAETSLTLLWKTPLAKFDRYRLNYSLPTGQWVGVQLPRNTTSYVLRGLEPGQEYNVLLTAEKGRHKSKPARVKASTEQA

Experiments:
[1] = biological target: T1, VEGF-B (UniProt P49765); experiment: ELISA, cytokine coated (50 nM), 100 nM TNC III1-5, HRP-anti-HIS
T1 sequence (looked up): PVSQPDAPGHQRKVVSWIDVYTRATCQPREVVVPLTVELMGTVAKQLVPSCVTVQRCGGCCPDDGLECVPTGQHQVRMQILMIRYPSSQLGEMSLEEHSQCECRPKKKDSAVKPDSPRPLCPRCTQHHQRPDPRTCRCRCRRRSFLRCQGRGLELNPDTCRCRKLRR

[2] = biological target: T2, PlGF-1 (UniProt P49763); experiment: ELISA: cytokine coated (50 nM), 100 nM TNC III1-5 in solution, HRP-anti-His, A450
T2 sequence (looked up): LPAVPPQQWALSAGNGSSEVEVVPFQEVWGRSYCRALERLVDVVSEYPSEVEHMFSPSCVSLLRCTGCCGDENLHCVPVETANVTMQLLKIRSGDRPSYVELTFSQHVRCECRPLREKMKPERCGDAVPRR

[3] = biological target: T1, VEGF-B; experiment: ELISA: cytokine coated (50 nM), 100 nM TNC III1-5 in solution, HRP-anti-His, A450; black bars without, white bars with 4 µM heparin
[4] = biological target: PDGF-BB (UniProt P01127); experiment: ELISA: GST-fused TNC domains, GST and BSA coated, 2 nM PDGF-BB in solution, anti-PDGF-BB antibody and HRP secondary, A450

Substance | binding [1] | binding [2] | binding [3] | binding [4]
TNC III1-5 (from UniProt P24821 622-1074) | binds | no binding (tested: 100 nM) | binds | 
TNC III4-5 (from UniProt P24821 895-1074) |  |  |  | binds
